Reference: patent US20220409620A1, “REDUCING IMMUNOGENICITY TO PEGLOTICASE” (Horizon Pharma Rheumatology LLC, priority 2016, published 2022)
The source gives many values for each of these; only a part stands here.

Test system: adult patients with uncontrolled gout
Assay: Serum uric acid (sUA) levels and sUA responder rate, open-label study of pegloticase with MTX (MIRROR OL)
Type: in vivo, human
Experimental: The primary objective is to estimate the response rate during Month 6 (Weeks 20, 22, and 24), as measured by the sustained normalization of serum uric acid (SUA) to <6 mg/dL for at least 80% of the time during Month 6 in subjects receiving KXX with MTX.
The primary efficacy outcome endpoint is the sustained normalization of SUA to <6 mg/dL for at least 80% of the time during month 6 (weeks 20, 22, and 24) in subjects receiving KXX with MTX. […] Participants who achieve this endpoint were classified as “responders.” Serum uric acid (SUA) responders may also be defined as participants achieving and maintaining SUA <6 mg/dL for at least 80% of the time during Month 6 (Weeks 20, 22, and 24).
Blood samples may be collected prior to each pegloticase infusion for measurement of SUA levels using the Beckman Coulter AU System Uric Acid procedure. Participants were declared “non-responders” if there were SUA measures >6 mg/dL at 2 consecutive study visits beginning with the week 2 visit. […] This assumption and subsequent discontinuation of pegloticase was consistent with the protocol of large phase III randomized controlled trials and the product label. A formal stopping rule was 2 occasions of SUA levels of greater than 6 mg/dL.
Clinical Chemistry—Blood samples were collected prior to each pegloticase infusion for measurement of SUA levels (primary efficacy parameter) using the Beckman Coulter AU System Uric Acid procedure. In this procedure uric acid is converted to hydrogen peroxide. Hydrogen peroxide reacts with reagent to produce a chromophore which is read bichromatically at 660/800 nm. The amount of dye formed is proportional to the uric acid concentration in the sample.
Serum samples for measurement of SUA levels were collected at the Screening Visit, the Week −4 Visit (prior to the first dose of MTX), and the Week −2 Visit during the MTX Run-in Period; within 48 hours prior to each pegloticase infusion and after the end of each pegloticase infusion prior to discharge from the site during the Pegloticase+IMM Period; at the non-infusion Week 52/End of Study/Early Termination Visits and at the Post Treatment 3 and 6 Month Follow-up Visits. Additional serum samples for SUA levels were collected at optional non-infusion (Frequent Sampling) Visits at Weeks 1 and 7. […] Subjects with SUA level >6 mg/dL at 2 consecutive visits beginning at Week 2 visit discontinued treatment, completed the End of Pegloticase Infusion Visit procedures within 2 weeks and continued the subject visits according to the protocol (without treatment).
Efficacy analyses were performed using the modified intention-to-treat (mITT) population, defined as all enrolled subjects who received ≥1 dose of pegloticase. The proportion of Month 6 responders was summarized, along with a 95% confidence interval for the proportion. The proportion of Month 3 and overall (Months 3 and 6 combined) responders was analyzed similarly.
A subject was declared a non-responder if the subject had SUA level >6 mg/dL at 2 consecutive study visits beginning with the Week 2 Visit. In addition, a subject who withdraws from study treatment for any reason after the first dose of pegloticase in the KXX+MTX Period and prior to Month 6 (for the primary endpoint) or Month 3 (for the secondary endpoint) was considered a non-responder if SUA values were not collected at the planned time points.
Patients were administered oral MTX (15 mg/week) and folate (1 mg/day) 4 weeks prior to the first pegloticase infusion (Day 1) and throughout the pegloticase treatment period. Blood was drawn prior to each infusion to measure sUA level, monitor clinical parameters, and examine for ADA development. All patients followed typical IR prophylaxis protocols (fexofenadine one day before and the morning of each infusion and acetaminophen and IV corticosteroid the morning of each infusion).

[1] = Month 6 sUA Non-Responders, Week 4-Post-Infusion, n=2
[2] = Month 6 sUA Non-Responders, Week 6-Post-Infusion, n=1
[3] = Month 6 sUA Non-Responders, Week 6-Pre-Infusion, n=2
[4] = Month 6 sUA Responders, Week 4-Post-Infusion, n=11
[5] = Month 6 sUA Responders, Week 6-Post-Infusion, n=11
[6] = Month 6 sUA Responders, Week 6-Pre-Infusion, n=11
[7] = Month 6 sUA Responders, Week 7, n=4

## pegloticase
[1]
  Serum Uric Acid, Change from Baseline, Mean (SD): −8.60 (0.707) mg/dL
  Serum Uric Acid, Change from Baseline, Median: -8.60 mg/dL
  Serum Uric Acid, Observed, Mean (SD): 0.30 (0.000) mg/dL
  Serum Uric Acid, Observed, Median: 0.30 mg/dL
  sUA <6 mg/dL, n (%): 2 (100%)
Month 6 sUA Non-Responders, Week 4-Pre-Infusion, n=3
  sUA <6 mg/dL, n (%): 1 ( 33.3%)
[2]
  Serum Uric Acid, Change from Baseline, Mean (SD): −9.10 (NE) mg/dL
  Serum Uric Acid, Change from Baseline, Median: -9.10 mg/dL
  Serum Uric Acid, Observed, Mean (SD): 0.30 (NE) mg/dL
  Serum Uric Acid, Observed, Median: 0.30 mg/dL
  sUA <6 mg/dL, n (%): 1 (100%)
[3]
  Serum Uric Acid, Change from Baseline, Mean (SD): −4.65 (6.293) mg/dL
  Serum Uric Acid, Change from Baseline, Median: -4.65 mg/dL
  Serum Uric Acid, Observed, Mean (SD): 4.25 (5.586) mg/dL
  Serum Uric Acid, Observed, Median: 4.25 mg/dL
  sUA <6 mg/dL, n (%): 1 ( 50.0%)
[4]
  Serum Uric Acid, Change from Baseline, Median: -8.80 mg/dL
  Serum Uric Acid, Observed, Median: 0.30 mg/dL
  sUA <6 mg/dL, n (%): 11 (100%)
[5]
  Serum Uric Acid, Change from Baseline, Mean (SD): −8.97 (2.810) mg/dL
  Serum Uric Acid, Change from Baseline, Median: -8.80 mg/dL
  Serum Uric Acid, Observed, Mean (SD): 0.30 (0.000) mg/dL
  Serum Uric Acid, Observed, Median: 0.30 mg/dL
  sUA <6 mg/dL, n (%): 11 (100%)
[6]
  Serum Uric Acid, Change from Baseline, Mean (SD): −8.97 (2.810) mg/dL
  Serum Uric Acid, Change from Baseline, Median: -8.80 mg/dL
  Serum Uric Acid, Observed, Mean (SD): 0.30 (0.000) mg/dL
  Serum Uric Acid, Observed, Median: 0.30 mg/dL
  sUA <6 mg/dL, n (%): 11 (100%)
[7]
  Serum Uric Acid, Change from Baseline, Mean (SD): −8.90 (4.755) mg/dL
  Serum Uric Acid, Change from Baseline, Median: -7.85 mg/dL
  Serum Uric Acid, Observed, Mean (SD): 0.30 (0.000) mg/dL
  Serum Uric Acid, Observed, Median: 0.30 mg/dL
